Assay results: the supplement of paper PMC10849652
The other results are listed elsewhere or left out.

Sequences of proteins named here, by UniProt entry; tags and fusion partners are left off. A change or cut given only in a name is not applied to a line headed by its entry.
UniProt P15531, whole entry, looked up: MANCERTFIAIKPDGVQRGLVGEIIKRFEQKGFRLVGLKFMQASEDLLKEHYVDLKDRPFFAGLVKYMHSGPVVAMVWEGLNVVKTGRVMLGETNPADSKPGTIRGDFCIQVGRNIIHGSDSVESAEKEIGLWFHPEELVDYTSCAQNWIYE
UniProt Q9H9Q4: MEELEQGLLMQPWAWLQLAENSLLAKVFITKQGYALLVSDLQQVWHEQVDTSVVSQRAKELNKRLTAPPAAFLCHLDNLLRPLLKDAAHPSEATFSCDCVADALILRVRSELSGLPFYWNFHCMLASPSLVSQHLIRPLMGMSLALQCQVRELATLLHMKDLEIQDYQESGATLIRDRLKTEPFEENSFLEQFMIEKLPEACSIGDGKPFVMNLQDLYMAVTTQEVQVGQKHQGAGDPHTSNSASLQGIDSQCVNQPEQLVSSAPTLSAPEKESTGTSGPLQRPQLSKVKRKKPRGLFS
UniProt Q5JS37: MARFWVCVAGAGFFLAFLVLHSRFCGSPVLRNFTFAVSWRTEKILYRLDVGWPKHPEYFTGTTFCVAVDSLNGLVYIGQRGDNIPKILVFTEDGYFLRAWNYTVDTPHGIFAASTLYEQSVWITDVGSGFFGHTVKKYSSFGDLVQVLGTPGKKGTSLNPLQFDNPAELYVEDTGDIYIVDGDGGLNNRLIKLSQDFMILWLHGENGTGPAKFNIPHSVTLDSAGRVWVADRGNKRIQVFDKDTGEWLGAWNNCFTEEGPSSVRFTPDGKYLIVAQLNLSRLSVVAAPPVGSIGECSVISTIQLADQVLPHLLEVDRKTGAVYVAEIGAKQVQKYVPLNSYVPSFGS
UniProt P04150: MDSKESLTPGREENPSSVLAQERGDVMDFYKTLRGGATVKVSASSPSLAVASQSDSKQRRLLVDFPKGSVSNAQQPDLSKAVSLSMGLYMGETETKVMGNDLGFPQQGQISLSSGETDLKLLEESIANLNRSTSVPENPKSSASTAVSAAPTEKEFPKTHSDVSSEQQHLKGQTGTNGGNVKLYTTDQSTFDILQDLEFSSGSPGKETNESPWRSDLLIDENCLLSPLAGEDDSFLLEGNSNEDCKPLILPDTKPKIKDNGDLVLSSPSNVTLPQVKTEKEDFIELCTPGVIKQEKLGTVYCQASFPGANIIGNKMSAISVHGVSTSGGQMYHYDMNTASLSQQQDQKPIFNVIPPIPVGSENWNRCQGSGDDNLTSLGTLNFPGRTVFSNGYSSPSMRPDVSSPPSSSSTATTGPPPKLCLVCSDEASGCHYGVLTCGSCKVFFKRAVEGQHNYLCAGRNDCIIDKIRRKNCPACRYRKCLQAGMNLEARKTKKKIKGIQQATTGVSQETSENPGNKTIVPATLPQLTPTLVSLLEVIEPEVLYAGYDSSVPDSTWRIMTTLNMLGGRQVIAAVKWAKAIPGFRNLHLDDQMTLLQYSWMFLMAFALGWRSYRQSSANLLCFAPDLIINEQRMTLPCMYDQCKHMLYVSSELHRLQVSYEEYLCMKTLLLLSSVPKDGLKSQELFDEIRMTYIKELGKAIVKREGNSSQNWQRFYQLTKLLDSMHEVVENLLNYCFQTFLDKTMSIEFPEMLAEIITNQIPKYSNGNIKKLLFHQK
UniProt Q9H8H0: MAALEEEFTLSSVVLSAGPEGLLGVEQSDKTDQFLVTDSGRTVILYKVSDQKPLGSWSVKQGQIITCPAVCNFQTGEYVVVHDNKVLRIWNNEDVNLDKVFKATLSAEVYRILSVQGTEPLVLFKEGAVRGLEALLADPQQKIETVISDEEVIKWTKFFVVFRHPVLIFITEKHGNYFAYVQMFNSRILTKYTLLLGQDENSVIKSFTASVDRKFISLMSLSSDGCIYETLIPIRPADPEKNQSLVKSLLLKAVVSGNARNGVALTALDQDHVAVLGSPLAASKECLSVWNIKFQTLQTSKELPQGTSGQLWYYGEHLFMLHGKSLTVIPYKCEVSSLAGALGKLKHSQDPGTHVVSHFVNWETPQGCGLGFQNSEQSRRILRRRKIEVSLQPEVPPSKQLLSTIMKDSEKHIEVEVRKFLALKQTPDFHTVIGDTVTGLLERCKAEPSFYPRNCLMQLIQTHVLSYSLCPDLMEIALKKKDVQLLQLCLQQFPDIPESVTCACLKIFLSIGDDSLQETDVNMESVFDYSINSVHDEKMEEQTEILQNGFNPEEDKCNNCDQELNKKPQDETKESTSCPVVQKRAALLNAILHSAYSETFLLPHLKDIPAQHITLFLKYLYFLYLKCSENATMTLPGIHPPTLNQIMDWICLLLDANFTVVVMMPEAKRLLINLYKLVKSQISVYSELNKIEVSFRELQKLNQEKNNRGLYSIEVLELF
UniProt Q13952: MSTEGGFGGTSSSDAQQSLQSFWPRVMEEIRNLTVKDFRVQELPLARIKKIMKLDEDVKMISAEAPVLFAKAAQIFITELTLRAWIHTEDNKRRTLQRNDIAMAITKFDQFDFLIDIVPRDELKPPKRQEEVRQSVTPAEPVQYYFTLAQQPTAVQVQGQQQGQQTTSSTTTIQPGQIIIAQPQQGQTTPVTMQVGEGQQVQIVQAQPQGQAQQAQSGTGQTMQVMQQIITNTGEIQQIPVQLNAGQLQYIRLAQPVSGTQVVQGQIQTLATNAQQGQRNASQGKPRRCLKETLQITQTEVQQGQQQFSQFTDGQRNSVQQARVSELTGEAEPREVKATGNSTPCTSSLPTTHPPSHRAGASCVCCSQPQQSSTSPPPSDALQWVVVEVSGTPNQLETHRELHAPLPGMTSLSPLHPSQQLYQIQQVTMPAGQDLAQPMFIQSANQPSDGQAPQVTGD
UniProt P51956: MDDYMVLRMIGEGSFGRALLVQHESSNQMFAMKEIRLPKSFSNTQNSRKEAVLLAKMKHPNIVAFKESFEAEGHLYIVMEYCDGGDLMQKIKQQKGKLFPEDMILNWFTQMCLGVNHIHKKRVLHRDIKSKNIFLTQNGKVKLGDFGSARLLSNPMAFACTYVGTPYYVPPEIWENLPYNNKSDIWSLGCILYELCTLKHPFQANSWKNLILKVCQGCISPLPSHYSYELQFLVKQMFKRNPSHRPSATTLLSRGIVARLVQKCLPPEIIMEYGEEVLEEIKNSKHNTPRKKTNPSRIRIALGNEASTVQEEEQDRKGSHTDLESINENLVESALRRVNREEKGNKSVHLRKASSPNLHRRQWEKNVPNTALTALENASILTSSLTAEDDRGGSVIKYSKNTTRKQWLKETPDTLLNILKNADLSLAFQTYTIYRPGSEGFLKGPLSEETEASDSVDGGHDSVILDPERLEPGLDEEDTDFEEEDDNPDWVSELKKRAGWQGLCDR
UniProt P18615, whole entry, looked up: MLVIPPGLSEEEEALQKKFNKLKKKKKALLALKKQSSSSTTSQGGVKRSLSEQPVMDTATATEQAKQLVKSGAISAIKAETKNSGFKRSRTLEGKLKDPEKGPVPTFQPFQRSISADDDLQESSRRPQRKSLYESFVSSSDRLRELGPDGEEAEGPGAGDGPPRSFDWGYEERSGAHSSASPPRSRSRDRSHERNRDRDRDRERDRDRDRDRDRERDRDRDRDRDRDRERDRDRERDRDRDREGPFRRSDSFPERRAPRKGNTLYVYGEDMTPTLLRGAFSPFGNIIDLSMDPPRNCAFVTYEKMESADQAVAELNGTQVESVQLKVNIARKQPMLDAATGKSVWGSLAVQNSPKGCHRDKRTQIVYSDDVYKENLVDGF
UniProt Q15738: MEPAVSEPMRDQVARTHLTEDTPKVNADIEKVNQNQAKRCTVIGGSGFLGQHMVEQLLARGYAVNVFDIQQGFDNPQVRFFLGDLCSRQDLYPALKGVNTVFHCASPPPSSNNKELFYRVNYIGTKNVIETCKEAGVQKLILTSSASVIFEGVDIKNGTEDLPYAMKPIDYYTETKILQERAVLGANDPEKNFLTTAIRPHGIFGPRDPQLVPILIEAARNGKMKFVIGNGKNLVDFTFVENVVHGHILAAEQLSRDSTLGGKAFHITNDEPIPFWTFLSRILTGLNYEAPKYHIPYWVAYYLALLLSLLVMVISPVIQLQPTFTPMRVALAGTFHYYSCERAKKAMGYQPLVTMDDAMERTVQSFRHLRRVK
UniProt Q7RTP0: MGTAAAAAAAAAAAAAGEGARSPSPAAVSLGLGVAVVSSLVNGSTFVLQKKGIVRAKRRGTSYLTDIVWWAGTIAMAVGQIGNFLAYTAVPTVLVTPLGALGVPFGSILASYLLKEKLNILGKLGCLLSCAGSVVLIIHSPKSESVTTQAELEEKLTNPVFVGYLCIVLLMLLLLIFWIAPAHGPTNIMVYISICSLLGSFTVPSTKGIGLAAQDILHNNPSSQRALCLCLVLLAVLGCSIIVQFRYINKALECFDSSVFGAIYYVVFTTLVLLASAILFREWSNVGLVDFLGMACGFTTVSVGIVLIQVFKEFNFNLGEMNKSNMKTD
UniProt P48645: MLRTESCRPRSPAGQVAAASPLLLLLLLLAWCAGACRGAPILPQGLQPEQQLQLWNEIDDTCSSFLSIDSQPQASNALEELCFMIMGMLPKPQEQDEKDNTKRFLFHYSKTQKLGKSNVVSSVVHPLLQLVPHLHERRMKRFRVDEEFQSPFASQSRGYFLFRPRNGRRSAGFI
UniProt Q13469: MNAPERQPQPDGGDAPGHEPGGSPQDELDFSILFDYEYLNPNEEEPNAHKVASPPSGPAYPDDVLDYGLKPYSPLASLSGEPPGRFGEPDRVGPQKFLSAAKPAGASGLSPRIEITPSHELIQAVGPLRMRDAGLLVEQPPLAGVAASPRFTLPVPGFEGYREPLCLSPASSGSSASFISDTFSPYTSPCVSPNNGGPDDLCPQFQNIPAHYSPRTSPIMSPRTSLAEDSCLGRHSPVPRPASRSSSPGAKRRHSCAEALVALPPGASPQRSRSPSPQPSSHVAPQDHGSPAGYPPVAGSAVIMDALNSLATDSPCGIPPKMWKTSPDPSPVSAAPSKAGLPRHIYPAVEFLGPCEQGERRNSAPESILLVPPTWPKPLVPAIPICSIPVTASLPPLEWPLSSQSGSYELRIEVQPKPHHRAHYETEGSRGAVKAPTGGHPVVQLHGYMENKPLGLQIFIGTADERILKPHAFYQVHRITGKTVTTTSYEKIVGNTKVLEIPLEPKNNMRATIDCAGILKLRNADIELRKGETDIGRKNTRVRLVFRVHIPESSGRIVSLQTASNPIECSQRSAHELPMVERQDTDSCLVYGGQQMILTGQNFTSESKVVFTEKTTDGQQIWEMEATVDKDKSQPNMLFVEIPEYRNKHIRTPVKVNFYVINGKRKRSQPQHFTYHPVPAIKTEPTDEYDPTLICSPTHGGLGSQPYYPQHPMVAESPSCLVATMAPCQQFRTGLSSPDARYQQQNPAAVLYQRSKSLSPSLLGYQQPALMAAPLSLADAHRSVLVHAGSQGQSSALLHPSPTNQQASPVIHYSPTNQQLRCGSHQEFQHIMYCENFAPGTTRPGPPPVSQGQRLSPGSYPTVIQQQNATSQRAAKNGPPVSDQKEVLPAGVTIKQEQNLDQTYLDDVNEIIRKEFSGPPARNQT
UniProt Q9H3P2, whole entry, looked up: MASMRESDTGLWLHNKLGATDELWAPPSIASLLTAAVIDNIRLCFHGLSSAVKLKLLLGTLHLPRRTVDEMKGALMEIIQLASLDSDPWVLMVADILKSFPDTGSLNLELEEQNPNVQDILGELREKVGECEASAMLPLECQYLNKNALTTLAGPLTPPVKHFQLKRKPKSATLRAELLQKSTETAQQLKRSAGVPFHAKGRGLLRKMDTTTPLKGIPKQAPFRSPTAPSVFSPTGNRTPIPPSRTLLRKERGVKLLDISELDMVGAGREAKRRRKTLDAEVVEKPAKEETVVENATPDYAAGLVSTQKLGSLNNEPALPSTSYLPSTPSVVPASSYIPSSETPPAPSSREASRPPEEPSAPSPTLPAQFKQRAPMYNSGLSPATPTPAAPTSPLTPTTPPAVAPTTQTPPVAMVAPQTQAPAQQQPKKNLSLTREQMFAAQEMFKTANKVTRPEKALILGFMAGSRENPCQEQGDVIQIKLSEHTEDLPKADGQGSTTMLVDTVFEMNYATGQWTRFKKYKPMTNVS
UniProt Q9HBL8: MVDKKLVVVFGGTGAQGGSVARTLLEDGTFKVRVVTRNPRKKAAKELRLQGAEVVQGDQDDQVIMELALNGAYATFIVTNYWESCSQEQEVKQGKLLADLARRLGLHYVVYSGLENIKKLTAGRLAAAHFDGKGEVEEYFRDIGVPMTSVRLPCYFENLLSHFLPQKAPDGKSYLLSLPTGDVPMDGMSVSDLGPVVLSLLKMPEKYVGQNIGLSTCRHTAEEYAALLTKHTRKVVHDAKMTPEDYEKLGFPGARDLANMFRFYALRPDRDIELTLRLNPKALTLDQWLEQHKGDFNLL
UniProt P40261: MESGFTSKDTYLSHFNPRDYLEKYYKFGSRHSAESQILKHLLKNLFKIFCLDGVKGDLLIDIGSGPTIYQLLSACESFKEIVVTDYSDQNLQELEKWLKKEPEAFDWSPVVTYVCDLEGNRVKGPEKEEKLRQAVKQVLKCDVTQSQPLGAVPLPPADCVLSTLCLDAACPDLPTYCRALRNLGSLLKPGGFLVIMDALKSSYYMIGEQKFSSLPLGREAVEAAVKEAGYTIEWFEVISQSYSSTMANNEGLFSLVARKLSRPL

Assays:
Experiment in all cases: log2 fold change, soluble protein after heating vs DMSO (PISA); higher = thermal stabilisation; K562 cells, 10 uM, 30 min; active = over 0.2 and 3.5 SD of the protein, either way, in both replicates (recomputed)
[1] = compound: CC[C@@H]1C(=O)N(C)c2cnc(Nc3ccc(C(=O)NC4CCN(C)CC4)cc3OC)nc2N1C1CCCC1
Procedure, shortened: (§1)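 K562 cells at 2×10^6 cells/mL were exposed to 10 μM compound for 30 min, then aliquots were heated for 3 min across 48°C-58°C, pooled, and extracted in PBS containing 0.5% NP-40 at 4°C. The supernatant after 21,000xg for 90 min was taken as soluble protein and measured by TMTpro 16plex LC-MS/MS with channel sums equalised. Thermal stability is reported relative to control samples, with values from duplicates. Fold changes are given on a log2 scale.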

[2] = compound: CC[C@@H]1C(=O)N(C)c2cnc(Nc3ccc(C(=O)N[C@H]4CC[C@H](N5CCN(CC6CC6)CC5)CC4)cc3OC)nc2N1C(C)C [volasertib]
Procedure, shortened: as §1

[3] = compound: CC[C@H](C)N1C=C(C2=C(C=C(C=C21)C3=CN=C(C=C3)N4CCNCC4)C(=O)NCC5=C(C=C(NC5=O)C)C)C
Procedure, shortened: as §1

[4] = compound: CC[C@H](C)[C@@H](C(=O)N[C@@H]([C@@H](C)O)C(=O)N[C@@H](CC(C)C)C(=O)[C@]1(CO1)C)NC(=O)[C@H]([C@@H](C)CC)N(C)C(=O)C [epoxomicin]
Procedure, shortened: as §1

[5] = compound: CCn1cc(-c2ccnc3[nH]c(-c4cccc(CN(C)C)c4)cc23)c(-c2ccc(NC(=O)N(C)C)cc2)n1
Procedure, shortened: as §1

[6] = compound: CN(C)CC(=O)Nc1ccc2[nH]c(=O)c3ccccc3c2c1
Procedure, shortened: as §1

[7] = compound: CN1C2=C(C3=C1C(=O)N(N=C3)CC4=CC(=CC=C4)N)SC(=C2)S(=O)C
Procedure, shortened: as §1

[8] = compound: CN1CCC(CNc2ccc3ncc(-c4cccc(OC(F)(F)F)c4)n3n2)CC1
Procedure, shortened: as §1

[9] = compound: CCn1c(C(=O)N(C2CC2)C2CC2)cc2c3c(ncn3C)c(Nc3cc(C)n(C)n3)nc21
Procedure, shortened: as §1

[10] = compound: CN(CCOC1=CC=C(C=C1)C[C@H]2C(=O)NC(=O)S2)C3=CC=CC=N3 (racemic) [rosiglitazone]
Procedure, shortened: as §1

Measured: log2 fold change

NME1 isoform 2 (UniProt P15531)
inactive: [1] 0.061 | [2] 0.046 | [3] 0.03 | [4] -0.01 | [5] -0.134 | [6] -0.028 | [7] -0.184 | [8] -0.039

NLRC3 isoform 2 (UniProt Q7RTR2)
inactive: [1] 0.133 | [2] 0.064 | [3] -0.222 | [4] -0.176 | [9] -0.025 | [6] -0.161 | [10] 0.13 | [7] -0.204

NHEJ1 (UniProt Q9H9Q4)
inactive: [1] -0.129 | [2] -0.145 | [3] -0.047 | [4] 0.088 | [9] 0.01 | [5] -0.039 | [6] -0.075 | [10] 0.134 | [7] -0.101 | [8] 0.046

NHLRC3 (UniProt Q5JS37)
inactive: [1] 0.004 | [2] 0.043 | [3] -0.125 | [4] 0.014 | [9] 0.044 | [5] 0.076 | [10] -0.042 | [7] -0.098 | [8] 0.25

NR3C1 isoform 3 (UniProt P04150)
inactive: [1] -0.196 | [2] -0.288 | [3] -0.103 | [4] -0.301 | [9] -0.13 | [7] 0.239

NOL11 (UniProt Q9H8H0)
inactive: [1] 0.029 | [2] -0.097 | [3] -0.025 | [4] -0.015 | [5] -0.027 | [6] -0.005 | [7] -0.028 | [8] 0.126

NFIA isoform 4 (UniProt Q12857)
inactive: [1] 0.149 | [2] 0.065 | [3] -0.043 | [4] 0.014 | [9] -0.066 | [5] 0.084 | [6] -0.068 | [10] -0.012 | [7] -0.058 | [8] 0.046

NOP53 (UniProt Q9NZM5)
inactive: [1] 0.174 | [2] 0.393 | [3] -0.014 | [4] -0.009 | [5] 0.013 | [6] -0.111 | [7] 0.516 | [8] 0.599

NR2C2AP isoform 2 (UniProt Q86WQ0)
inactive: [1] -0.108 | [2] -0.061 | [3] -0.018 | [4] 0.023 | [5] 0.018 | [6] 0 | [7] -0.223 | [8] -0.152

NFYC (UniProt Q13952)
inactive: [1] 0.012 | [2] 0.015 | [3] -0.021 | [4] -0.001 | [5] -0.015 | [6] 0.041 | [7] -0.063 | [8] 0

NOP56 (UniProt O00567)
inactive: [1] 0.141 | [2] 0.238 | [3] 0.034 | [4] -0.44 | [5] 0.066 | [6] -0.208 | [7] 0.299 | [8] 0.168

NMT1 (UniProt P30419)
inactive: [1] 0.028 | [2] -0.21 | [3] 0.036 | [4] 0.014 | [5] -0.028 | [6] -0.022 | [7] 0.007 | [8] -0.097

NEU1 (UniProt Q99519)
inactive: [1] -0.184 | [3] 0.059 | [4] 0.113 | [5] 0.052 | [6] 0.012 | [7] 0.015 | [8] -0.079
active: [2] -0.501

NIT1 (UniProt Q86X76)
inactive: [1] 0.005 | [2] 0.043 | [3] -0.037 | [4] -0.031 | [9] -0.025 | [5] -0.045 | [6] 0.017 | [10] 0.01 | [7] 0.02 | [8] 0.02

NEK3 (UniProt P51956)
active: [8] -0.465
inactive: [1] -0.046 | [2] -0.162 | [3] 0.167 | [4] 0.067 | [5] -0.125 | [6] 0.014 | [7] 0.002

NELFE isoform 3 (UniProt P18615)
inactive: [1] -0.054 | [2] -0.148 | [3] 0.013 | [4] -0.003 | [9] -0.019 | [5] 0.092 | [6] 0.034 | [10] -0.01 | [7] 0.035 | [8] -0.044

NES (UniProt P48681)
inactive: [1] 0.091 | [2] 0.047 | [4] -0.117 | [9] -0.092 | [5] 0.428 | [6] -0.143 | [10] -0.074 | [7] 0.31 | [8] 0.045

NKAP (UniProt Q8N5F7)
inactive: [1] 0.026 | [2] -0.3 | [3] 0.082 | [4] -0.109 | [5] 0.092 | [6] 0.052 | [7] -0.025 | [8] -0.164

NSDHL (UniProt Q15738)
inactive: [1] -0.005 | [2] 0.084 | [3] 0.105 | [4] -0.004 | [5] -0.018 | [6] 0.012 | [7] -0.193 | [8] -0.001

NMNAT1 (UniProt Q9HAN9)
inactive: [1] 0.302 | [2] 0.161 | [3] -0.007 | [4] -0.168 | [5] 0.098 | [6] -0.092 | [7] 0.228 | [8] 0.053

NIPA1 (UniProt Q7RTP0)
inactive: [1] 0.173 | [2] 0.045 | [3] 0.005 | [9] 0.008 | [6] 0.043 | [10] 0.089 | [7] -0.068

NPC1L1 (UniProt Q9UHC9)
inactive: [1] -0.029 | [2] -0.016 | [3] 0.2 | [6] -0.016 | [7] -0.081

NMU (UniProt P48645)
inactive: [1] 0.094 | [2] 0.072 | [3] 0 | [4] 0.077 | [5] 0.008 | [6] -0.017 | [7] -0.008 | [8] 0.271

NFATC2 (UniProt Q13469)
inactive: [1] -0.098 | [2] -0.281 | [3] 0.19 | [4] -0.001 | [5] -0.197 | [6] 0.065 | [7] 0.039 | [8] -0.102

NFKB2 (UniProt Q00653)
inactive: [1] -0.023 | [2] -0.017 | [3] 0.064 | [4] -0.024 | [10] -0.019

Reprinted at random: 2 records from the list, in no set order.
NIPA1 (UniProt Q7RTP0)
inactive: [1] 0.173 | [2] 0.045 | [3] 0.005 | [9] 0.008 | [6] 0.043 | [10] 0.089 | [7] -0.068

NPC1L1 (UniProt Q9UHC9)
inactive: [1] -0.029 | [2] -0.016 | [3] 0.2 | [6] -0.016 | [7] -0.081

(further entries)

NELFA (UniProt Q9H3P2)
active: [2] -0.868
inactive: [1] -0.4 | [3] 0.341 | [4] 0.053 | [5] -0.139 | [6] 0.16 | [7] -0.051 | [8] 0.006

NMRAL1 (UniProt Q9HBL8)
inactive: [1] 0.27 | [2] 0.294 | [3] 0.105 | [4] 0.035 | [5] 0.055 | [6] 0.122 | [7] 0.059 | [8] 0.526

NIPBL (UniProt Q6KC79)
inactive: [1] -0.345 | [2] -0.333 | [4] -0.227 | [9] 0.184 | [10] -0.007

NNMT (UniProt P40261)
inactive: [1] 0.003 | [2] -0.197 | [3] 0.023 | [4] 0.039 | [5] -0.068 | [6] -0.042 | [7] -0.025 | [8] -0.152
